Measurements reported in PMC6773865, “Functional recruitment of dynamin requires multimeric interactions for efficient endocytosis” (Nature Communications, 2019).
No constants are given. Whether binding was seen depends on the method and setting. Tags and fused reporters may be left off the sequences shown.

Biological target: SUMO-amphSH3 (SH3 domain of murine amphiphysin1 fused to the small ubiquitin-like modifier) (murine) (UniProt Q7TQF7)
Experiment: SEC; analytical size exclusion chromatography, Superdex200 Increase 10/300 GL, PBS + 0.01% Tween-20, 0.75 mL/min; both purified

B1: SUMO-amphSH3 (SH3 domain of murine amphiphysin1 fused to the small ubiquitin-like modifier) (domain or fragment, UniProt Q7TQF7 607-686)
chain: TQELPPGFLYKVETLHDFEAANSDELNLQRGDVVLVVPSDSEADQDAGWLVGVKESDWLQYRDLATYKGLFPENFTRRLE
binding: no binding
